Here are results for 1 molecule from PMC3146510.

For assay [1], the target named is α5 integrin subunit (human (endogenous in fetal pancreas)). The assay is described as follows: co-IP; detergent extracts (1% Brij 96, 25 mM Hepes pH 7.5, 150 mM NaCl, 5 mM MgCl2) of human embryonic pancreatic explants; 700 µg protein; immunoprecipitation with rabbit polyclonal anti-α2, -α3, -α5, -β3, anti-Netrin-4 or rabbit IgG at 4°C overnight; Western blotting for Netrin-4.

In assay [2] the target is integrin α3β1 (human (endogenous in fetal pancreas)). The description is as above.

No constants are given. Whether binding was seen depends on the method and setting. Binding seen in cells or lysates may run through a third protein. For some assays here: A result given as binding can be weak or reduced; the word gives no strength.

B1: Netrin-4 (protein, UniProt Q9HB63 19-628)
chain: GLSGVAGVSSRCEKACNPRMGNLALGRKLWADTTCGQNATELYCFYSENTDLTCRQPKCDKCNAAYPHLAHLPSAMADSSFRFPRTWWQSAEDVHREKIQLDLEAEFYFTHLIVMFKSPRPAAMVLDRSQDFGKTWKPYKYFATNCSATFGLEDDVVKKGAICTSKYSSPFPCTGGEVIFKALSPPYDTENPYSAKVQEQLKITNLRVQLLKRQSCPCQRNDLNEEPQHFTHYAIYDFIVKGSCFCNGHADQCIPVHGFRPVKAPGTFHMVHGKCMCKHNTAGSHCQHCAPLYNDRPWEAADGKTGAPNECRTCKCNGHADTCHFDVNVWEASGNRSGGVCDDCQHNTEGQYCQRCKPGFYRDLRRPFSAPDACKPCSCHPVGSAVLPANSVTFCDPSNGDCPCKPGVAGRRCDRCMVGYWGFGDYGCRPCDCAGSCDPITGDCISSHTDIDWYHEVPDFRPVHNKSEPAWEWEDAQGFSALLHSGKCECKEQTLGNAKAFCGMKYSYVLKIKILSAHDKGTHVEVNVKIKKVLKSTKLKIFRGKRTLYPESWTDRGCTCPILNPGLEYLVAGHEDIRTGKLIVNMKSFVQHWKPSLGRKVMDILKRECK
Regarding B1, the binding result in assay [1] is “no binding”; in assay [2], “binds”.
